Assay results reported in PMC6028519.
These are yes or no findings as the source states them, for the method shown. Binding seen in cells or lysates may run through a third protein. Some entries that bind do so weakly or less than the wild type.

The chains behind the UniProt entries cited, without tags or fusion partners.
UniProt Q96RU2: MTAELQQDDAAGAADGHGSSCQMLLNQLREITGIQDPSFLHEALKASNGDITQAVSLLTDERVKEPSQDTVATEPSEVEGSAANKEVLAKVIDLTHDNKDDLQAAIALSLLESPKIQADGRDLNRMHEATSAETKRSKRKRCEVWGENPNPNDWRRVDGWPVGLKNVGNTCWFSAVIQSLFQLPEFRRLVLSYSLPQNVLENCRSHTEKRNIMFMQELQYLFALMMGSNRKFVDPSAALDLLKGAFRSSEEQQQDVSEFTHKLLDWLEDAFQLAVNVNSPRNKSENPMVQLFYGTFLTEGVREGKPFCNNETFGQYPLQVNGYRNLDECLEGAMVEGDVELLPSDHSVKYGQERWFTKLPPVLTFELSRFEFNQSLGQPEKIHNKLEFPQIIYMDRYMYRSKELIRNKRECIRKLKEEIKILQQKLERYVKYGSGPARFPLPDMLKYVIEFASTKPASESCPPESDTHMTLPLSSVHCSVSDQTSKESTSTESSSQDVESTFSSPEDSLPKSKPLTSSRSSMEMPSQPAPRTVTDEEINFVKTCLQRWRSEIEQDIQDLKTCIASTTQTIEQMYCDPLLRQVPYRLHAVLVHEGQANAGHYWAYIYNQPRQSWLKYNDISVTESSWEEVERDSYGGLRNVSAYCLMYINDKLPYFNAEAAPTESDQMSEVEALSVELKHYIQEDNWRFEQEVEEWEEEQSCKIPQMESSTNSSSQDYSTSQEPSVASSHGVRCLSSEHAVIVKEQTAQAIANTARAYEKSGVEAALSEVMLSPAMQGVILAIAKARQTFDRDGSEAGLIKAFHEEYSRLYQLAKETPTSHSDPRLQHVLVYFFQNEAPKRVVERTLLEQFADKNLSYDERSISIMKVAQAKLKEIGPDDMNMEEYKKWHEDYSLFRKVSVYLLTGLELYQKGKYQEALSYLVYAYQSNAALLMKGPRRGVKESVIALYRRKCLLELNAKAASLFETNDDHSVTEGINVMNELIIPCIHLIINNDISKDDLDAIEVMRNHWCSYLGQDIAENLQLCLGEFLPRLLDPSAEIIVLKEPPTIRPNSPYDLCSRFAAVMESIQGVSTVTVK
UniProt Q969H0: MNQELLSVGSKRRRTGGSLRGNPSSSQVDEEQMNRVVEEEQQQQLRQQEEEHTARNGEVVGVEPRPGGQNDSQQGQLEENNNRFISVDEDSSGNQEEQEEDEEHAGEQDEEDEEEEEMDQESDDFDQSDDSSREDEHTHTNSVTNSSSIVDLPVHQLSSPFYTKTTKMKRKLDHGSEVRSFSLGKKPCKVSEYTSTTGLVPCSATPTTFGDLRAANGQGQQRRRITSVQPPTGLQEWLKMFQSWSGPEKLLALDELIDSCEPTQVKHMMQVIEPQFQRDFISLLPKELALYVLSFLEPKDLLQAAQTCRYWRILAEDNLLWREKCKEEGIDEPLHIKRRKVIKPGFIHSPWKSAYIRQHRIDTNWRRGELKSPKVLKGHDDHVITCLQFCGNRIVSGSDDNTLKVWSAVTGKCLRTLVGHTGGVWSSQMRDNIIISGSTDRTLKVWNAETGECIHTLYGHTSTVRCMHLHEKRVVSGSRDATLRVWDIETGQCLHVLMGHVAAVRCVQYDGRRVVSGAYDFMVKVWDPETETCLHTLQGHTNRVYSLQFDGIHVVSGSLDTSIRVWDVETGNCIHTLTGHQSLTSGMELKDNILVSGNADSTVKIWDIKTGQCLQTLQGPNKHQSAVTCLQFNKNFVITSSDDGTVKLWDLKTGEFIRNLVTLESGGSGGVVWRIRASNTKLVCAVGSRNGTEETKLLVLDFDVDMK

How the values were obtained:
Flag-USP28 = Flag-USP28 (UniProt Q96RU2); test: co-IP; ectopically expressed USP28 in 293T cells (Fig. S2 E-G); who was precipitated is not shown
[1] = target: USP28 (endogenous) (human (endogenous in 293T)) (UniProt Q96RU2); test: co-IP; immunoprecipitation of endogenous USP28 from 293T lysate (ELB buffer, 250 mM NaCl), immunoblot of the partner

| binding (Flag-USP28) | binding [1] | Substance |
| --- | --- | --- |
| binds | binds | CRAF (from UniProt P04049 1-648) (enzyme) |
| – | binds | FBW7 (endogenous) (from UniProt Q969H0 1-707) |
